# The list shows a part of the results.
# B1: CcfD (Bacteroides fragilis), Q5L9G4 (protein)
# chain: MKKQNSIYTLLIALLCFVSSCDYLGVSDQLAGGLQNTEQVFDNVSYTKRWYANVFAGIPDYSGINSVNVGAFKNPWTGMCDELVVGYGNSSKYNNSDRNAANMGFHRYGDCYKYIRQANIFLQKAHPIMTTGTQGDQLLEDELTQMKANVRFMRAFYHYLLFEQYGPIILVKDKIYNATEDQDVPRNTVDEVIEYIDSELTAVASELTQEPIFEDKDYRAWPTKGVALAVRAKLWLYAASPLLNGGYREALSVTNPDGTRLFPDYDAGKWEKALAACKDFIDYAEAGRYELYKEYKDDNGAVIDPDKSVYNLFQKYTHEIIWATANNDWGGMNGDAFDRRIAPRCEKNGLGSTGVTQELVDAFYMKDGFPVSATAYLPQSTLYQEEGYGTYKDQNDNFSKKYTNVTVSNRYLNREPRFYNTVFFNGRQWPVSCNQVLFYNGGNSGVQEGQATLTGYMLFKRFNRSVSLTNPGVASQFRPSIIFRLADFYLMYAEAANEVNPNDARVLKYLNLVRERAGLPDIETLNPAIRGNQELQRAAIQRERQIELATEGQRYFDVRRWMIADKNGEGRQNGYVHGMNVRGESNDKEDFNRIVEASQIVFNRKMYLYPMPDSEMRKTKNLVQNPGW
# Assays:
# Assay in all cases: glycan array binding signal (z-score within array); higher = stronger binding
# Settings in all cases: glycan notation: IUPAC condensed, linker removed
# [1] = biological target: Fuc(a1-2)[Gal(a1-3)]Gal(b1-4)GlcNAc(b1-2)Man(a1-3)[Fuc(a1-2)[Gal(a1-3)]Gal(b1-4)GlcNAc(b1-2)Man(a1-6)]Man(b1-4)GlcNAc(b1-4)GlcNAc
# How it was run: (§1)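 The binding signal is a Z-score computed within each array and averaged over linkers. Arrays of the same protein sequence at different concentrations or buffers were also averaged together. Data originate from 3228 arrays in the Consortium for Functional Glycomics database, kept only where the protein sequence was available.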
# [2] = biological target: Fuc(a1-2)[Gal(a1-3)]Gal(b1-4)GlcNAc(b1-2)Man(a1-3)[Fuc(a1-2)[Gal(a1-3)]Gal(b1-4)GlcNAc(b1-2)Man(a1-6)]Man(b1-4)GlcNAc(b1-4)[Fuc(a1-6)]GlcNAc
# How it was run: as §1
# [3] = biological target: Fuc(a1-2)[Gal(a1-3)]Gal(b1-4)GlcNAc(b1-3)GalNAc
# How it was run: as §1
# [4] = biological target: Fuc(a1-2)[Gal(a1-3)]Gal(b1-4)GlcNAc(b1-3)[Fuc(a1-2)[Gal(a1-3)]Gal(b1-4)GlcNAc(b1-6)]GalNAc
# How it was run: as §1
# [5] = biological target: Fuc(a1-2)[Gal(a1-3)]Gal(b1-4)GlcNAc(b1-6)GalNAc
# How it was run: as §1
# [6] = biological target: Fuc(a1-2)[Gal(a1-3)]Gal(b1-4)[Fuc(a1-3)]Glc
# How it was run: as §1
# [7] = biological target: Fuc(a1-2)[Gal(a1-3)]Gal(b1-4)[Fuc(a1-3)]GlcNAc
# How it was run: as §1
# [8] = biological target: Fuc(a1-2)[Gal(a1-3)]Gal(b1-4)[Fuc(a1-3)]GlcNAc(b1-3)GalNAc
# How it was run: as §1
# [9] = biological target: Fuc(a1-2)[Gal(a1-4)]Gal(b1-4)GlcNAc
# How it was run: as §1
# [10] = biological target: Fuc(a1-2)[GalNAc(a1-3)]Gal
# How it was run: as §1
# [11] = biological target: Fuc(a1-2)[GalNAc(a1-3)]Gal(b1-3)GalNAc(a1-3)[Fuc(a1-2)]Gal(b1-4)GlcNAc
# How it was run: as §1
# [12] = biological target: Fuc(a1-2)[GalNAc(a1-3)]Gal(b1-3)GalNAc(b1-3)Gal(a1-4)Gal(b1-4)Glc
# How it was run: as §1
# [13] = biological target: Fuc(a1-2)[GalNAc(a1-3)]Gal(b1-3)GlcNAc
# How it was run: as §1
# [14] = biological target: Fuc(a1-2)[GalNAc(a1-3)]Gal(b1-3)GlcNAc(b1-2)Man(a1-3)[Fuc(a1-2)[GalNAc(a1-3)]Gal(b1-3)GlcNAc(b1-2)Man(a1-6)]Man(b1-4)GlcNAc(b1-4)GlcNAc
# How it was run: as §1
# [15] = biological target: Fuc(a1-2)[GalNAc(a1-3)]Gal(b1-3)GlcNAc(b1-2)Man(a1-3)[Fuc(a1-2)[GalNAc(a1-3)]Gal(b1-3)GlcNAc(b1-2)Man(a1-6)]Man(b1-4)GlcNAc(b1-4)[Fuc(a1-6)]GlcNAc
# How it was run: as §1
# [16] = biological target: Fuc(a1-2)[GalNAc(a1-3)]Gal(b1-3)GlcNAc(b1-3)GalNAc
# How it was run: as §1
# [17] = biological target: Fuc(a1-2)[GalNAc(a1-3)]Gal(b1-3)GlcNAc(b1-6)GalNAc
# How it was run: as §1
# [18] = biological target: Fuc(a1-2)[GalNAc(a1-3)]Gal(b1-4)Glc
# How it was run: as §1
# [19] = biological target: Fuc(a1-2)[GalNAc(a1-3)]Gal(b1-4)GlcNAc
# How it was run: as §1
# [20] = biological target: Fuc(a1-2)[GalNAc(a1-3)]Gal(b1-4)GlcNAc(b1-2)Man
# How it was run: as §1
# [21] = biological target: Fuc(a1-2)[GalNAc(a1-3)]Gal(b1-4)GlcNAc(b1-2)Man(a1-3)[Fuc(a1-2)[GalNAc(a1-3)]Gal(b1-4)GlcNAc(b1-2)Man(a1-6)]Man(b1-4)GlcNAc(b1-4)GlcNAc
# How it was run: as §1
# [22] = biological target: Fuc(a1-2)[GalNAc(a1-3)]Gal(b1-4)GlcNAc(b1-2)Man(a1-3)[Fuc(a1-2)[GalNAc(a1-3)]Gal(b1-4)GlcNAc(b1-2)Man(a1-6)]Man(b1-4)GlcNAc(b1-4)[Fuc(a1-6)]GlcNAc
# How it was run: as §1
# [23] = biological target: Fuc(a1-2)[GalNAc(a1-3)]Gal(b1-4)GlcNAc(b1-3)Gal(b1-4)GlcNAc
# How it was run: as §1
# [24] = biological target: Fuc(a1-2)[GalNAc(a1-3)]Gal(b1-4)GlcNAc(b1-3)Gal(b1-4)GlcNAc(b1-3)Gal(b1-4)GlcNAc
# How it was run: as §1
# [25] = biological target: Fuc(a1-2)[GalNAc(a1-3)]Gal(b1-4)GlcNAc(b1-3)GalNAc
# How it was run: as §1
# [26] = biological target: Fuc(a1-2)[GalNAc(a1-3)]Gal(b1-4)GlcNAc(b1-3)[Fuc(a1-2)[GalNAc(a1-3)]Gal(b1-4)GlcNAc(b1-6)]GalNAc
# How it was run: as §1
# [27] = biological target: Fuc(a1-2)[GalNAc(a1-3)]Gal(b1-4)GlcNAc(b1-6)GalNAc
# How it was run: as §1
# [28] = biological target: Fuc(a1-2)[GalNAc(a1-3)]Gal(b1-4)[Fuc(a1-3)]GlcNAc
# How it was run: as §1
# [29] = biological target: Fuc(a1-2)[GalNAc(a1-3)]Gal(b1-4)[Fuc(a1-3)]GlcNAc(b1-3)GalNAc
# How it was run: as §1
# [30] = biological target: Fuc(a1-2)[GalNAc(a1-4)]Gal(b1-4)GlcNAc
# How it was run: as §1
binder,measurement,setting,value
B1,glycan array binding signal (z-score),[1],-0.292
same,glycan array binding signal (z-score),[2],-1.55
same,glycan array binding signal (z-score),[3],-0.706
same,glycan array binding signal (z-score),[4],-0.923
same,glycan array binding signal (z-score),[5],-0.384
same,glycan array binding signal (z-score),[6],-0.253
same,glycan array binding signal (z-score),[7],0.121
same,glycan array binding signal (z-score),[8],0.64
same,glycan array binding signal (z-score),[9],-0.062
same,glycan array binding signal (z-score),[10],-0.43
same,glycan array binding signal (z-score),[11],2.62
same,glycan array binding signal (z-score),[12],1.77
same,glycan array binding signal (z-score),[13],-0.529
same,glycan array binding signal (z-score),[14],-0.062
same,glycan array binding signal (z-score),[15],0.279
same,glycan array binding signal (z-score),[16],0.758
same,glycan array binding signal (z-score),[17],0.161
same,glycan array binding signal (z-score),[18],-0.542
same,glycan array binding signal (z-score),[19],-0.732
same,glycan array binding signal (z-score),[20],-0.161
same,glycan array binding signal (z-score),[21],1.84
same,glycan array binding signal (z-score),[22],-0.03
same,glycan array binding signal (z-score),[23],1.34
same,glycan array binding signal (z-score),[24],-1.07
same,glycan array binding signal (z-score),[25],0.056
same,glycan array binding signal (z-score),[26],1.13
same,glycan array binding signal (z-score),[27],-1.16
same,glycan array binding signal (z-score),[28],0.095
same,glycan array binding signal (z-score),[29],0.975
same,glycan array binding signal (z-score),[30],-0.982

# An excerpt of these results, with tabs.
binder	measurement	setting	value
B1	glycan array binding signal (z-score)	[20]	-0.161
same	glycan array binding signal (z-score)	[21]	1.84
same	glycan array binding signal (z-score)	[22]	-0.03
same	glycan array binding signal (z-score)	[23]	1.34
same	glycan array binding signal (z-score)	[24]	-1.07
same	glycan array binding signal (z-score)	[25]	0.056
same	glycan array binding signal (z-score)	[26]	1.13
